Laboratory results from PMC9561704.
These are yes or no findings as the source states them, for the method shown. Binding seen in cells or lysates may run through a third protein. Some binding calls cover weakened binding; strength is not graded here. Sequences can lack the tags named with a protein.

Sequences of proteins named here, by UniProt entry; tags and fusion partners are left off.
UniProt Q96CV9: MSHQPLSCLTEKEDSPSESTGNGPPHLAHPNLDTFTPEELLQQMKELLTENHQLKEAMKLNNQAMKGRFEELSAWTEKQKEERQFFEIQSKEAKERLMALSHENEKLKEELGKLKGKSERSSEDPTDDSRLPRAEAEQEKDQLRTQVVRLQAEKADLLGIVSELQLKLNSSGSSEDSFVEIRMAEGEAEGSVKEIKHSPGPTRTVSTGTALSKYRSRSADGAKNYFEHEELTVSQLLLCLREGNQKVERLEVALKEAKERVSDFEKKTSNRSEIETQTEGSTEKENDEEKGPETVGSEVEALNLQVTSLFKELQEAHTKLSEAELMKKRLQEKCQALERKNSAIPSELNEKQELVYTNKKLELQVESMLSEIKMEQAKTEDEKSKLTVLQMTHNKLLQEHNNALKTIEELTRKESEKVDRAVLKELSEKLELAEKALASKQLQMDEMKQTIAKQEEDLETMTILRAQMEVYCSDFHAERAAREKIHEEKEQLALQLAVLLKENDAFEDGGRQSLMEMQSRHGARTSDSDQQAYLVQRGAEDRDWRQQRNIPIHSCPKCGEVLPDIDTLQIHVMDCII

Target: N-terminal Flag-tagged OPTN (Optineurin), pCMV2-Flag-OPTN WT (UniProt Q96CV9)
Test: co-IP; HUVEC (10^7 cells, cultured on plastic) co-transfected with pCMV2-Flag-OPTN WT or empty vector and pKH3-HA3-Hace1; lysis in RIPA buffer (25 mM Tris-HCl pH 7.6, 150 mM NaCl, 1% NP-40, 1% sodium deoxycholate, 0.1% SDS); anti-FLAG M2 affinity gel 2 h at 4 °C; anti-HA immunoblot

B1: HA-HACE1 (pKH3-HA3-Hace1) (enzyme, UniProt Q8IYU2 1-909)
chain: MERAMEQLNRLTRSLRRARTVELPEDNETAVYTLMPMVMADQHRSVSELLSNSKFDVNYAFGRVKRSLLHIAANCGSVECLVLLLKKGANPNYQDISGCTPLHLAARNGQKKCMSKLLEYSADVNICNNEGLTAIHWLAVNGRTELLHDLVQHVSDVDVEDAMGQTALHVACQNGHKTTVQCLLDSGADINRPNVSGATPLYFACSHGQRDTAQILLLRGAKYLPDKNGVTPLDLCVQGGYGETCEVLIQYHPRLFQTIIQMTQNEDLRENMLRQVLEHLSQQSESQYLKILTSLAEVATTNGHKLLSLSSNYDAQMKSLLRIVRMFCHVFRIGPSSPSNGIDMGYNGNKTPRSQVFKPLELLWHSLDEWLVLIATELMKNKRDSTEITSILLKQKGQDQDAASIPPFEPPGPGSYENLSTGTRESKPDALAGRQEASADCQDVISMTANRLSAVIQAFYMCCSCQMPPGMTSPRFIEFVCKHDEVLKCFVNRNPKIIFDHFHFLLECPELMSRFMHIIKAQPFKDRCEWFYEHLHSGQPDSDMVHRPVNENDILLVHRDSIFRSSCEVVSKANCAKLKQGIAVRFHGEEGMGQGVVREWFDILSNEIVNPDYALFTQSADGTTFQPNSNSYVNPDHLNYFRFAGQILGLALNHRQLVNIYFTRSFYKHILGIPVNYQDVASIDPEYAKNLQWILDNDISDLGLELTFSVETDVFGAMEEVPLKPGGGSILVTQNNKAEYVQLVTELRMTRAIQPQINAFLQGFHMFIPPSLIQLFDEYELELLLSGMPEIDVSDWIKNTEYTSGYEREDPVIQWFWEVVEDITQEERVLLLQFVTGSSRVPHGGFANIMGGSGLQNFTIAAVPYTPNLLPTSSTCINMLKLPEYPSKEILKDRLLVALHCGSYGYTMA
B1 was tested, and the binding was “binds”.
